Some of the results follow. Repeats are few or missing, and single values can be far off.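 Cells were imaged in 1,536-well plates, and nuclei stained with an antibody against cleaved PARP were counted against all DNA-stained nuclei to give the apoptosis fraction. Screening doses were chosen to leave most cells alive, and resting and induced cleaved-PARP levels differ strongly between cell lines.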
Key:
Experiment in all cases: cleaved PARP positive nuclei fraction relative to DMSO control; melanoma cells; higher = more apoptosis
Conditions in all cases: library dose: low library concentration; 72 h
501Mel = test system: 501Mel
A101D = test system: A101D
A2058 = test system: A2058
A375 = test system: A375
C32 = test system: C32
CBRC008 = test system: CBRC008 (line from a melanoma biopsy)
CBRC013 = test system: CBRC013 (line from a melanoma biopsy)
CBRC014 = test system: CBRC014 (line from a melanoma biopsy)
CBRC016 = test system: CBRC016 (line from a melanoma biopsy)
CBRC017 = test system: CBRC017 (line from a melanoma biopsy)
COLO792 = test system: COLO792
COLO800 = test system: COLO800
COLO829 = test system: COLO829
G361 = test system: G361
IPC-298 = test system: IPC-298
IST-MEL1 = test system: IST-MEL1
LB2518-MEL = test system: LB2518-MEL
LOXIMVI = test system: LOXIMVI
MEL-HO = test system: MEL-HO

Row | Structure (SMILES) | cleaved PARP positive nuclei fraction (501Mel) [%] | cleaved PARP positive nuclei fraction (A101D) [%] | cleaved PARP positive nuclei fraction (A2058) [%] | cleaved PARP positive nuclei fraction (A375) [%] | cleaved PARP positive nuclei fraction (C32) [%] | cleaved PARP positive nuclei fraction (CBRC008) [%] | cleaved PARP positive nuclei fraction (CBRC013) [%] | cleaved PARP positive nuclei fraction (CBRC014) [%] | cleaved PARP positive nuclei fraction (CBRC016) [%] | cleaved PARP positive nuclei fraction (CBRC017) [%] | cleaved PARP positive nuclei fraction (COLO792) [%] | cleaved PARP positive nuclei fraction (COLO800) [%] | cleaved PARP positive nuclei fraction (COLO829) [%] | cleaved PARP positive nuclei fraction (G361) [%] | cleaved PARP positive nuclei fraction (IPC-298) [%] | cleaved PARP positive nuclei fraction (IST-MEL1) [%] | cleaved PARP positive nuclei fraction (LB2518-MEL) [%] | cleaved PARP positive nuclei fraction (LOXIMVI) [%] | cleaved PARP positive nuclei fraction (MEL-HO) [%]
1 | N#CC[C@H](C1CCCC1)n1cc(-c2ncnc3[nH]ccc23)cn1 [ruxolitinib] + O=C(Nc1cccc(Cl)c1)Nc1ncc(CCNc2ncnc3ccsc23)s1 [SNS314] (first compound 1 µM, partner dose 0.0008 µM) | 241 | 37.9 | 130 | 104 | 140 | 158 | 127 | 89.6 | 138 | 136 | 118 | 27.7 | 39.4 | 99.1 | 57.6 | 170 | 78.4 | 50.3 | 68.7
2 | CC[C@]1(O)C[C@H]2CN(CCc3c([nH]c4ccccc34)[C@@](C(=O)OC)(c3cc4c(cc3OC)N(C=O)[C@H]3[C@@](O)(C(=O)OC)[C@H](OC(C)=O)[C@]5(CC)C=CCN6CC[C@]43[C@@H]65)C2)C1 [vincristine] + OCCn1cc(-c2cnc3nnn(Cc4ccc5ncccc5c4)c3n2)cn1 [PF04217903] (first compound 0.0001 µM, partner dose 1 µM) | 97 | 188 | 108 | 130 | 208 | 70.8 | 55.7 | 89.7 | 111 | 91.5 | 63 | 148 | 141 | 54.3 | 93.4 | 98.8 | 102 | 276 | 34.7
3 | O=C(/C=C/c1cccnc1)NCCCCC1CCN(C(=O)c2ccccc2)CC1 + O=C(O)c1ccc(-c2c[nH]c3ncc(-c4ccccc4)cc23)cc1C1CCCC1 [GSK650394] (first compound 0.01 µM, partner dose 0.16 µM) | 64 | 50.2 | 91.5 | 70.6 | 101 | 1860 | 101 | 192 | 839 | 441 | 532 | 297 | 186 | 2710 | 1250 | 254 | 221 | 179 | 807
4 | O=C(Nc1cc(C(F)(F)F)cc(C(F)(F)F)c1)c1cc(Cl)ccc1O + NCC(=O)Nc1ccc(-n2nc(C(F)(F)F)cc2-c2ccc3c(ccc4ccccc43)c2)cc1 [OSU03012] (first compound 0.016 µM, partner dose 1 µM) | 195 | 93.9 | 118 | 6030 | 91.7 | 230 | 188 | 80.9 | 128 | 73.7 | 154 | 102 | 113 | 224 | 117 | 114 | 104 | 106 | 61.9
5 | Cc1cc(Nc2cc(N3CCN(C)CC3)nc(Sc3ccc(NC(=O)C4CC4)cc3)n2)n[nH]1 [Tozasertib] + CC1(C)NC(=O)N(c2ccc([N+](=O)[O-])c(C(F)(F)F)c2)C1=O [nilutamide] (first compound 0.006 µM, partner dose 1 µM) | 86.3 | 84.3 | 178 | 65.7 | 114 | 56.7 | 107 | 78.2 | 150 | 87.9 | 108 | 59.4 | 109 | 44.6 | 135 | 40.2 | 104 | 63.9 | 425
6 | CCCCCCCCCCCCCCCCCCOP(=O)([O-])OC1CC[N+](C)(C)CC1 [Perifosine] + CN(C)S(=O)(=O)c1ccc2c(c1)/C(=C/c1cc3c([nH]1)CCCC3)C(=O)N2 [SU6656] (first compound 0.4 µM, partner dose 0.4 µM) | 88.2 | 47.8 | 83.6 | 119 | 85.1 | 128 | 116 | 90.7 | 91.2 | 104 | 285 | 176 | 37.2 | 135 | 91.1 | 163 | 85 | 65.4 | 77.1
7 | Cc1cn(-c2cc(NC(=O)c3ccc(C)c(Nc4nccc(-c5cccnc5)n4)c3)cc(C(F)(F)F)c2)cn1 [nilotinib] + CN(C)S(=O)(=O)c1ccc2c(c1)/C(=C/c1cc3c([nH]1)CCCC3)C(=O)N2 [SU6656] (first compound 0.2 µM, partner dose 0.4 µM) | 52.1 | 87.1 | 27.8 | 80 | 106 | 44.7 | 109 | 82.5 | 122 | 87.5 | 57.4 | 95 | 100 | 84.3 | 45.8 | 162 | 84.9 | 24.5 | 135
8 | COc1cc([C@@H]2c3cc4c(cc3[C@@H](O[C@@H]3O[C@@H]5CO[C@@H](C)O[C@H]5[C@H](O)[C@H]3O)[C@H]3COC(=O)[C@H]23)OCO4)cc(OC)c1O [etoposide] + OCCn1cc(-c2cnc3nnn(Cc4ccc5ncccc5c4)c3n2)cn1 [PF04217903] (first compound 0.02 µM, partner dose 1 µM) | 70.8 | 77.4 | 137 | 67.7 | 227 | 153 | 139 | 93.3 | 129 | 90.8 | 119 | 110 | 72.5 | 60 | 49.2 | 140 | 50.2 | 79.8 | 125
9 | O=C(/C=C/c1cccnc1)NCCCCC1CCN(C(=O)c2ccccc2)CC1 + O=C(Nc1cccc(Cl)c1)Nc1ncc(CCNc2ncnc3ccsc23)s1 [SNS314] (first compound 0.01 µM, partner dose 0.0008 µM) | 78.9 | 187 | 79.6 | 125 | 41.8 | 1780 | 96.2 | 102 | 368 | 623 | 249 | 247 | 198 | 2600 | 418 | 144 | 141 | 33.6 | 627
10 | Cc1cn(-c2cc(NC(=O)c3ccc(C)c(Nc4nccc(-c5cccnc5)n4)c3)cc(C(F)(F)F)c2)cn1 [nilotinib] + CO[C@@H]1[C@H](N(C)C(=O)c2ccccc2)C[C@H]2O[C@]1(C)n1c3ccccc3c3c4c(c5c6ccccc6n2c5c31)C(=O)NC4 [Midostaurin] (first compound 0.2 µM, partner dose 0.08 µM) | 88.2 | 185 | 145 | 138 | 239 | 89.1 | 148 | 103 | 91.5 | 83.1 | 86.5 | 120 | 101 | 113 | 98.5 | 219 | 101 | 127 | 31.7
11 | O=C(Nc1cc(C(F)(F)F)cc(C(F)(F)F)c1)c1cc(Cl)ccc1O + CC1(C)NC(=O)N(c2ccc([N+](=O)[O-])c(C(F)(F)F)c2)C1=O [nilutamide] (first compound 0.016 µM, partner dose 1 µM) | 89.2 | 76.5 | 28.5 | 53.3 | 42.2 | 211 | 92.9 | 73.5 | 98.9 | 126 | 68.7 | 52.4 | 135 | 85.1 | 48.8 | 55.4 | 68.9 | 94 | 65.1
12 | O=c1[nH]nc(Sc2ncc([N+](=O)[O-])s2)n1-c1ccc2c(c1)OCCO2 + C[C@@H]1CCN(C(=O)CC#N)C[C@@H]1N(C)c1ncnc2[nH]ccc12 [CP690550] (first compound 0.2 µM, partner dose 1 µM) | 80.5 | 82.3 | 70.8 | 278 | 61 | 33.2 | 123 | 85.3 | 128 | 116 | 61 | 67.4 | 41.2 | 75.1 | 172 | 51 | 148 | 128 | 68.1
13 | N#CC[C@H](C1CCCC1)n1cc(-c2ncnc3[nH]ccc23)cn1 [ruxolitinib] + NC(=O)Nc1cc(-c2cccc(F)c2)sc1C(=O)N[C@H]1CCCNC1 [AZD7762] (first compound 1 µM, partner dose 0.02 µM) | 38.8 | 45.2 | 118 | 167 | 96.5 | 75.5 | 87.7 | 86.9 | 247 | 110 | 132 | 86.4 | 72.1 | 120 | 82.9 | 57.7 | 65 | 103 | 68.1
14 | O=C(Nc1cc(C(F)(F)F)cc(C(F)(F)F)c1)c1cc(Cl)ccc1O + CO[C@@H]1[C@H](N(C)C(=O)c2ccccc2)C[C@H]2O[C@]1(C)n1c3ccccc3c3c4c(c5c6ccccc6n2c5c31)C(=O)NC4 [Midostaurin] (first compound 0.016 µM, partner dose 0.08 µM) | 265 | 91 | 119 | 73.7 | 94.1 | 205 | 143 | 106 | 25.8 | 114 | 166 | 167 | 145 | 58.1 | 47.3 | 49.1 | 108 | 20 | 49
15 | Cc1ccc(Nc2nccc(N(C)c3ccc4c(C)n(C)nc4c3)n2)cc1S(N)(=O)=O [Pazopanib] + C[C@@H]1CCN(C(=O)CC#N)C[C@@H]1N(C)c1ncnc2[nH]ccc12 [CP690550] (first compound 0.4 µM, partner dose 1 µM) | 189 | 46.2 | 151 | 53.8 | 104 | 49.5 | 91.3 | 94 | 167 | 116 | 112 | 39.4 | 77.8 | 156 | 57.4 | 47.7 | 87 | 72.4 | 65.9
16 | COc1cc([C@@H]2c3cc4c(cc3[C@@H](O[C@@H]3O[C@@H]5CO[C@@H](C)O[C@H]5[C@H](O)[C@H]3O)[C@H]3COC(=O)[C@H]23)OCO4)cc(OC)c1O [etoposide] + Cn1cncc1[C@@](N)(c1ccc(Cl)cc1)c1ccc2c(c1)c(-c1cccc(Cl)c1)cc(=O)n2C [tipifarnib] (first compound 0.02 µM, partner dose 0.01 µM) | 165 | 44.4 | 133 | 119 | 104 | 61.1 | 79.1 | 101 | 145 | 302 | 121 | 63.8 | 68 | 100 | 96 | 153 | 57.5 | 19.4 | 149

In a second layout: entries from further up.
Row	Structure (SMILES)	cleaved PARP positive nuclei fraction (501Mel) [%]	cleaved PARP positive nuclei fraction (A101D) [%]	cleaved PARP positive nuclei fraction (A2058) [%]	cleaved PARP positive nuclei fraction (A375) [%]	cleaved PARP positive nuclei fraction (C32) [%]	cleaved PARP positive nuclei fraction (CBRC008) [%]	cleaved PARP positive nuclei fraction (CBRC013) [%]	cleaved PARP positive nuclei fraction (CBRC014) [%]	cleaved PARP positive nuclei fraction (CBRC016) [%]	cleaved PARP positive nuclei fraction (CBRC017) [%]	cleaved PARP positive nuclei fraction (COLO792) [%]	cleaved PARP positive nuclei fraction (COLO800) [%]	cleaved PARP positive nuclei fraction (COLO829) [%]	cleaved PARP positive nuclei fraction (G361) [%]	cleaved PARP positive nuclei fraction (IPC-298) [%]	cleaved PARP positive nuclei fraction (IST-MEL1) [%]	cleaved PARP positive nuclei fraction (LB2518-MEL) [%]	cleaved PARP positive nuclei fraction (LOXIMVI) [%]	cleaved PARP positive nuclei fraction (MEL-HO) [%]
2	CC[C@]1(O)C[C@H]2CN(CCc3c([nH]c4ccccc34)[C@@](C(=O)OC)(c3cc4c(cc3OC)N(C=O)[C@H]3[C@@](O)(C(=O)OC)[C@H](OC(C)=O)[C@]5(CC)C=CCN6CC[C@]43[C@@H]65)C2)C1 [vincristine] + OCCn1cc(-c2cnc3nnn(Cc4ccc5ncccc5c4)c3n2)cn1 [PF04217903] (first compound 0.0001 µM, partner dose 1 µM)	97	188	108	130	208	70.8	55.7	89.7	111	91.5	63	148	141	54.3	93.4	98.8	102	276	34.7
3	O=C(/C=C/c1cccnc1)NCCCCC1CCN(C(=O)c2ccccc2)CC1 + O=C(O)c1ccc(-c2c[nH]c3ncc(-c4ccccc4)cc23)cc1C1CCCC1 [GSK650394] (first compound 0.01 µM, partner dose 0.16 µM)	64	50.2	91.5	70.6	101	1860	101	192	839	441	532	297	186	2710	1250	254	221	179	807
4	O=C(Nc1cc(C(F)(F)F)cc(C(F)(F)F)c1)c1cc(Cl)ccc1O + NCC(=O)Nc1ccc(-n2nc(C(F)(F)F)cc2-c2ccc3c(ccc4ccccc43)c2)cc1 [OSU03012] (first compound 0.016 µM, partner dose 1 µM)	195	93.9	118	6030	91.7	230	188	80.9	128	73.7	154	102	113	224	117	114	104	106	61.9
5	Cc1cc(Nc2cc(N3CCN(C)CC3)nc(Sc3ccc(NC(=O)C4CC4)cc3)n2)n[nH]1 [Tozasertib] + CC1(C)NC(=O)N(c2ccc([N+](=O)[O-])c(C(F)(F)F)c2)C1=O [nilutamide] (first compound 0.006 µM, partner dose 1 µM)	86.3	84.3	178	65.7	114	56.7	107	78.2	150	87.9	108	59.4	109	44.6	135	40.2	104	63.9	425
